# In PubChem BioAssay AID1671190 (National Center for Advancing Translational Sciences (NCATS), 2021):
# Chains of the proteins cited; added tags and fusions are not shown. Lines headed by an entry give the natural chain unless they say otherwise; changes in a name come on top.
# UniProt P18054: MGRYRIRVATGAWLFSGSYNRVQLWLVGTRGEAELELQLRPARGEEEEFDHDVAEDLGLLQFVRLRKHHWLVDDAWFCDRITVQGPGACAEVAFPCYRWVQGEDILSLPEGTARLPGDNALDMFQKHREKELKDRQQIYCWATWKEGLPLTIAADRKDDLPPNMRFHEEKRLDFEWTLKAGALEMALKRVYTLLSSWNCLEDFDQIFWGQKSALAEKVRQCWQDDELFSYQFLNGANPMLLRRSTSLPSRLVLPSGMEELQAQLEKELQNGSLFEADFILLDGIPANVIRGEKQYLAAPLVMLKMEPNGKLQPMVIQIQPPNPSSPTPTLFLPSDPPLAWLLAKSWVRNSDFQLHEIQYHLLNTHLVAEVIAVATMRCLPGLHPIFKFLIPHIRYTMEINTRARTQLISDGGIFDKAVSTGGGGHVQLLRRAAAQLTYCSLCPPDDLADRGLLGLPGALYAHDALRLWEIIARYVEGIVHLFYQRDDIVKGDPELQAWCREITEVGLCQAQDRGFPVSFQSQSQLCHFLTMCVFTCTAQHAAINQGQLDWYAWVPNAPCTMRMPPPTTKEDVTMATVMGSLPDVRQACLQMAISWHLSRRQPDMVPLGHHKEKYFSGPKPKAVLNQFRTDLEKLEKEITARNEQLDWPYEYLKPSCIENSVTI
# The whole screen tested about 580,000 compounds, of which about 6,100 (1.1%) were called active. Inconclusive means that the source gave no clear call. Such entries were picked first, then a sample of the others. The call rests on the fitted dose curve; in most records, active means well fitted inhibition curve with a large enough effect; inconclusive means small, poorly fitted or top-dose-only effect, or another doubt; inactive means no such curve, though single readings can be large or run the other way. Potencies beside an inconclusive call are fits to weak or partial responses and may not hold up.
# Biological target: Polyunsaturated fatty acid lipoxygenase ALOX12 (Homo sapiens) (UniProt P18054)
# Test: Primary qHTS assay for inhibitors of human arachidonate 12S-lipoxygenase (ALOX12): Round 2
# Conditions: purified 12hLO, xylenol orange hydroperoxide absorbance; activity change, negative = inhibition: at 108 µM (top of the series) unless noted
# Method in brief: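 Hydroperoxide product was detected by ferrous iron/xylenol orange as the 573 to 405 nm absorbance ratio. Arachidonic acid at 40 uM (final) was turned over for 30 min at room temperature by 150 nM human 12hLO, pH 7.0 Hepes buffer, after 15 min compound preincubation.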
# On the % scale 0 is the no-effect control and ±100 the full control effect; potency means the concentration at half of the fitted maximal effect.
SMILES,Potency,"activity change, negative = inhibition"
O=C1N[C@@H](Cc2ccccc2)COC(=O)[C@H](Cc2ccc(F)cc2)C/C=C\C[C@@H]1CC(=O)N(CCO)Cc1ccccc1,"inconclusive: 89.1 µM [inhibitor, partial curve, poor fit]",
CC(C)CNC(=O)c1cccc(NC(=O)CCc2ccccc2)c1,,inactive: -29.2%
COC(=O)c1cc2n3ccccc3c(C)c(-c3ccccc3)c-2c1C(=O)OC,"inconclusive: 50.1 µM [inhibitor, single point]",
O=C(c1ccc(-c2ccccc2)cc1)C(O)c1ccc(-c2ccccc2)cc1 (centres undefined),"inconclusive: 79.4 µM [inhibitor, single point]",
Cc1cc(C)c([N+](=O)[O-])cc1-c1ccc(/C=N/c2c(-c3ccco3)nc3ccccn23)o1,"inconclusive: 35.5 µM [inhibitor, single point]",
COc1ccc(CCNC(=O)c2ccc3ccccc3n2)cc1OC,,inactive: -10.4%
COCCCN1C(=O)C(=O)/C(=C(/O)c2ccc(OC(C)C)cc2)C1c1ccc(O)c(OC)c1 (centres undefined),"inconclusive: 2.82 µM [inhibitor, full curve, poor fit]",
O=S(=O)(c1ccc(-c2csc(Nc3ccc(F)cc3)n2)cc1)N1CCOCC1,"inconclusive: 5.01 µM [inhibitor, full curve, poor fit]",
COc1cc(C)ccc1OCCCCNCc1ccccc1,"inconclusive: 3.98 µM [inhibitor, full curve, poor fit]",
C(=C\c1sc(Nc2ccccc2)n[n+]1-c1ccccc1)/c1ccccc1,active: 50.1 µM,
C/[N+]([O-])=C\c1cccc(OCCN2CCN(c3ncc(C(F)(F)F)cc3Cl)CC2)c1,,inactive: 1.6%
COc1ccc(CN2CCC(C(=O)N(C)CCc3ccc(OC)c(OC)c3)CC2)c(OC)c1,"inconclusive: 1 µM [inhibitor, full curve, poor fit]",
CC1(C)CC(=O)C=C(NCCO)C1,,inactive: 198% [at 57.4 µM]
Cc1c(C)n(CC(O)CN2CCCCC2)c2ccccc12 (centres undefined),"inconclusive: 3.55 µM [inhibitor, full curve, poor fit]",
Nc1nc(Nc2ccc(Cl)cc2Cl)nc(-c2cc3ccccc3o2)n1,"inconclusive: 39.8 µM [inhibitor, partial curve]",
O=C1Nc2ccccc2Nc2ccc([N+](=O)[O-])cc21,,inactive: -27.1%
O=C(Nc1ccc[n+](CC(=O)c2cccc3ccccc23)c1)c1ccccc1,"inconclusive: 63.1 µM [inhibitor, partial curve, poor fit]",
CCOC(=O)c1cccc(NC(=O)C2(S(=O)(=O)c3ccc(C)cc3)CC2)c1,"inconclusive: 126 µM [inhibitor, partial curve, poor fit]",
CSCc1cc(N(C)C)nc(SCc2ccc(Cl)c(Cl)c2)n1,"inconclusive: 1.12 µM [inhibitor, full curve]",
FC(F)(F)c1cccc(NC(=S)N(CCCN2CCCC2)Cc2cccn2Cc2ccc(Cl)cc2)c1,"inconclusive: 56.2 µM [inhibitor, partial curve, poor fit]",
COCCn1c(-c2ccc(-c3ccccc3Cl)o2)nc2c1c(=O)[nH]c(=O)n2CC(C)C,,inactive: 2.28%
CC(C)NC(=O)N1CCC2(CC1)CN(C(=O)C1CCN(C)CC1)Cc1ccccc1O2,,inactive: 4.33% [at 6.33 µM]

SMILES,Potency,"activity change, negative = inhibition"
CC(=O)NCCCC(=O)N1CCN(C2CCNCC2)C(=O)C1,"inconclusive: 7.94 µM [inhibitor, full curve, poor fit]",
CCOc1ccc(NC(=O)C2CCN(S(=O)(=O)c3ccc4c(c3)CC(C)N4C(C)=O)CC2)cc1 (centres undefined),"inconclusive: 3.98 µM [inhibitor, full curve, poor fit]",
COc1ccc2nc(C[C@@H]3C[C@@H](C(C)C)[C@H](CNC4CCCCC4)C=C3C)[nH]c2c1,,inactive: -26.6% [at 176 µM]
Cc1cnc(C(=O)N2CC(N(C)Cc3cccnc3)C2)cn1,,inactive: 27.3%
O=C(CC1C(=O)NCCN1Cc1cccc(F)c1)NC1CCCCCC1 (centres undefined),"inconclusive: 15.8 µM [inhibitor, partial curve, poor fit]",
CC(OC(=O)c1cccc(S(=O)(=O)N2CCN(C)CC2)c1)C(=O)Nc1ccc(C(N)=O)cc1 (centres undefined),,inactive: -23.6%
COc1ccccc1NC(=O)c1ncoc1-c1cccc(Cl)c1,"inconclusive: 0.562 µM [inhibitor, full curve, poor fit]",
C[C@H]1CN([C@@H](C)CO)C(=O)c2cc(Br)cnc2O[C@@H]1CN(C)S(=O)(=O)c1ccccc1,"inconclusive: 35.5 µM [inhibitor, single point]",
Nc1ccc(N2CCCC2)c(S(=O)(=O)Nc2cccc(C(F)(F)F)c2)c1,"inconclusive: 28.2 µM [inhibitor, partial curve]",
CC(OC(=O)Cn1cnc2c1c(=O)n(C)c(=O)n2C)C(=O)Nc1ccc(F)cc1 (centres undefined),,inactive: -6.88%
COc1cccc(Cn2cc(-c3cccc(C(F)(F)F)c3)nn2)c1,"inconclusive: 35.5 µM [inhibitor, partial curve, poor fit]",
O=S(=O)(c1ccccc1C(F)(F)F)N1CCC2(CCCNC2)C1 (centres undefined),,inactive: 1.92%
CC#CCOC(=O)c1c(C)nc2sc3c(c2c1N)CC[C@@H](O)C3,"inconclusive: 112 µM [inhibitor, single point]",
COC(=O)C1=C(C)N(C)C(=NCc2ccc(C(F)(F)F)cc2)NC1c1ccc(C(F)(F)F)cc1 (centres undefined),"inconclusive: 112 µM [inhibitor, partial curve, poor fit]",
Cc1onc(-c2ccccc2)c1NC(=O)Nc1ccc(OC(F)F)cc1,"inconclusive: 35.5 µM [inhibitor, single point]",
O=C(CSc1ccc(Br)cc1)Nc1ccc(N2CCOCC2)cc1,"inconclusive: 100 µM [inhibitor, partial curve, poor fit]",
O=C(c1ccccc1)c1n[nH]c(-c2ccccc2)cc1=O,"inconclusive: 0.0794 µM [inhibitor, full curve, poor fit]",
CCNc1oc(/C=C/c2ccc(OC)c(OC)c2)nc1C#N,"inconclusive: 44.7 µM [inhibitor, partial curve, poor fit]",
O=S(=O)(c1ccccc1)N1CCC[C@@]2(CCN(c3ccccc3)C2)C1,"inconclusive: 31.6 µM [inhibitor, single point]",
Fc1ccc(C2NCCn3cccc32)cc1 (centres undefined),"inconclusive: 31.6 µM [inhibitor, single point]",
Cc1ccc(C)c(NCC(=O)Nc2cc(Cl)ccc2-n2cncn2)c1,"inconclusive: 11.2 µM [inhibitor, full curve]",
O=C(Cc1n[nH]c(=O)c2ccccc12)NCc1ccccc1,"inconclusive: 2.82 µM [inhibitor, full curve, poor fit]",

SMILES,Potency,"activity change, negative = inhibition"
Cc1cc(C)cc(C(=O)OCC(=O)NCc2ccco2)c1,"inconclusive: 44.7 µM [inhibitor, partial curve, poor fit]",
CCN1CCN(C(=O)c2ccc(CSc3ccc(C)cc3)cc2)CC1,"inconclusive: 2.82 µM [inhibitor, full curve]",
COc1ccc(C(C)(C)C)cc1NC(=O)c1[nH]c(C)c(C(C)=O)c1C,"inconclusive: 0.316 µM [inhibitor, full curve, poor fit]",
O=c1c(-c2cccs2)nc2cnc(Oc3cccc(Cl)c3)nc2n1C1CC1,"inconclusive: 39.8 µM [inhibitor, single point]",
COc1cccc(N(C(=O)Cn2nnc(-c3ccc(Cl)cc3)n2)C(C(=O)NCC2CCCO2)c2ccc(C)cc2)c1 (centres undefined),,inactive: -4.6%
CC(C)C(NS(=O)(=O)c1cccs1)C(=O)NCc1ccc2c(c1)OCO2 (centres undefined),"inconclusive: 141 µM [inhibitor, single point]",
Cc1cc(OCC(=O)O)c(C)c2c1CC[C@@H]([C@H](C)C(=O)N1CCC(O)CC1)C2,"inconclusive: 112 µM [inhibitor, partial curve]",
CCc1ccc(C(=O)N2CCc3c(sc4ncnc(N)c34)C2)cc1,,inactive: -3.62%
COc1ccccc1NC(=O)CCc1c[nH]c2ccccc12,,inactive: 6.74%
COc1cc(OC)c(OC)cc1CN1CCN(Cc2ccco2)CC1,"inconclusive: 3.16 µM [inhibitor, full curve, poor fit]",
COc1cc(/C=C2\CCCc3c2nc2ccccc2c3C(=O)O)cc(Cl)c1O,"inconclusive: 35.5 µM [inhibitor, partial curve, poor fit]",
CCC/C=C/c1ccc(CN2C(C(C)C)C(=O)N(Cc3cn(CCC4OCCCO4)nn3)CCS2(=O)=O)cc1 (centres undefined),,inactive: -26.2%
COC(=O)c1cc(C)sc1NC(=S)N1CCN(CCc2ccccc2)CC1,,inactive: -9.39%
C#CCOCCOCCOCCNc1nc(N2CCN(C(=O)Cn3cc(CCO)nn3)CC2)nc(N2CCN(C(=O)[C@H](C)n3cc(CCCN=C(N)N)nn3)CC2)n1,"inconclusive: 8.91 µM [inhibitor, full curve, poor fit]",
CC(OC(=O)c1oc2ccccc2c1CSC1CCCCC1)C(=O)NC(N)=O (centres undefined),,inactive: -0.579%
COc1ccccc1CNC(=O)c1ccc2c(c1)CC(=O)N2Cc1ccc(F)cc1,"inconclusive: 8.91 µM [inhibitor, full curve]",
CCc1c(C(=O)N2CCCN(C)C3(CCN(C)CC3)C2)csc1C,,inactive: 19.3%
CCCN1CCC(N2CCCC(C(=O)O)C2)CC1 (centres undefined),"inconclusive: 50.1 µM [inhibitor, partial curve, poor fit]",
CCN(C(=O)Cn1nc(-c2ccc(Br)cc2)ccc1=O)c1cccc(C)c1,"inconclusive: 44.7 µM [inhibitor, partial curve, poor fit]",
COc1ccccc1CNc1nc(NCc2ccccc2OC)c2sccc2n1,"inconclusive: 56.2 µM [inhibitor, partial curve, poor fit]",

# 3 entries from above, as tab-separated lines:
SMILES	Potency	activity change, negative = inhibition
CC(C)C(NS(=O)(=O)c1cccs1)C(=O)NCc1ccc2c(c1)OCO2 (centres undefined)	inconclusive: 141 µM [inhibitor, single point]	
COC(=O)c1cc(C)sc1NC(=S)N1CCN(CCc2ccccc2)CC1		inactive: -9.39%
COc1ccccc1CNc1nc(NCc2ccccc2OC)c2sccc2n1	inconclusive: 56.2 µM [inhibitor, partial curve, poor fit]	
